According to patent US8575069:
Results are given in words; binding and its absence hold for the method and conditions named. Binding seen in cells or lysates may run through a third protein. Some binding calls cover weakened binding; strength is not graded here.

Tests used:
[1] = target: biotinylated neuropeptide Y (UniProt P01303); assay: pull-down of phage on bNPY immobilized on streptavidin-coated magnetic beads, SDS-PAGE and Western blot (anti-fd / anti-NPY)
[2] = target: streptavidin (on streptavidin-coated magnetic beads) (UniProt P22629); assay: pull-down of phage on streptavidin-coated magnetic beads, SDS-PAGE and Western blot (anti-fd)

Row | Binder | binding [1] | binding [2]
1 | VQHNTKYSVVIR (peptide, not shown: large carriers) [NPY-binding peptide N1 (SEQ ID NO:1), displayed on bacteriophage] | binds | 
2 | YHPNGMNPYTKA (peptide, not shown: large carriers) [NPY-binding peptide N2 (SEQ ID NO:2), displayed on bacteriophage] | binds | 
3 | FPNWSLRPMNQM (peptide, not shown: large carriers) [NPY-binding peptide N3 (SEQ ID NO:3), displayed on bacteriophage] | binds | 
4 | LTTQTLWDNHPQ (peptide, not shown: large carriers) [streptavidin-binding peptide C1 with HPQ motif (SEQ ID NO:4), displayed on bacteriophage] |  | binds
5 | HGIDGLQMWHPQ (peptide, not shown: large carriers) [streptavidin-binding peptide C2 with HPQ motif (SEQ ID NO:5), displayed on bacteriophage] |  | binds
